This is an account of results in paper doi:10.1101/283192.

Amino acid sequences for entries named in this document (tags omitted). A change or cut given only in a name is not applied to a line headed by its entry.
UniProt Q9UNE7, whole entry: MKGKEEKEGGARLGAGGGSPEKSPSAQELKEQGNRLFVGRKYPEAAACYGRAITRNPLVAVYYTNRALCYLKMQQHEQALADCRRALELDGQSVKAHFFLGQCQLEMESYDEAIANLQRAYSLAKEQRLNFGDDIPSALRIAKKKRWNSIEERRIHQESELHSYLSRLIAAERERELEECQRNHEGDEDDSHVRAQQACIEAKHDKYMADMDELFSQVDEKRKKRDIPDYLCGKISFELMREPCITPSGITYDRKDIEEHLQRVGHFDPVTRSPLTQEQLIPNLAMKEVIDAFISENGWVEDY

Assay [1] addresses myc-CHIP-T246M (pcDNA3-mycCHIP-T246M) (human) (UniProt Q9UNE7). Nature of the assay: co-IP.
The target in assay [2] is myc-CHIP-H260Q (pcDNA3-mycCHIP-H260Q) (human) (UniProt Q9UNE7). Kind of assay: native gel or EMSA.
Assay [3] has as its target HA-CHIP wild type (pcDNA3-HA-CHIP) (human) (UniProt Q9UNE7). Kind of assay: co-IP.
For assay [4], the target named is myc-CHIP-T246M (pcDNA3-mycCHIP-T246M) (human) (UniProt Q9UNE7). Kind of assay: native gel or EMSA.

Results are given in words; binding and its absence hold for the method and conditions named. For some of these results: In cells and extracts the contact can be indirect. Some results given as binding are weak or reduced against the parent protein; the word gives no strength.

As to “HA-CHIP wild type (pcDNA3-HA-CHIP) (from UniProt Q9UNE7 1-303)”, the binding entry in assay [1] is on record as “binds”.
Regarding “myc-CHIP-H260Q (pcDNA3-mycCHIP-H260Q) (from UniProt Q9UNE7 1-303)”, the binding entry in assay [2] is “binds”.
Consider “myc-CHIP-T246M (pcDNA3-mycCHIP-T246M) (from UniProt Q9UNE7 1-303)”, for which the binding result in assay [3] and in assay [4] was “binds” each time.
